The other results are listed elsewhere or left out. Shown are side measurements of this screen, not its main read-out; they come without a call. Most of these compounds were active or inconclusive in the main read-out, so they are no random draw. Potencies come from curve fits of mixed quality, noted in brackets.
Assay: qHTS Assay to Find Inhibitors of Chronic Active B-Cell Receptor Signaling
Details: ABC-DLBCL IkBa-CBG/CBR reporter, luminescence ratio (green luciferase fused to IkBa over red control in TMD8 lymphoma cells), 4 h
In short: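 Doxycycline induced both beetle luciferases in TMD8 lymphoma cells; IKK-driven degradation limits the IkappaBalpha-fused green signal, while red luminescence normalises for cell number and nonspecific effects. Compounds tested up to 46 uM, 4 hrs.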

[1] = measured here: CBR red luminescence, cell number

COc1ccc(-c2[nH]c(-c3ccccc3)nc2SCC(=O)NC2CCCC2)cc1
AC50 [1]: 5.8 µM [rising, partial curve, poor fit]

Fc1ccc(Cn2nnc(-c3ccc(Cl)cc3)n2)cc1
AC50 [1]: 6.31 µM [rising, partial curve]

O=C(NNC(=S)NC(=O)c1ccccc1)c1cccnc1
AC50 [1]: 10 µM [falling, partial curve]

Cc1ccc(C(=O)COc2nc(C)cc(C)c2C#N)cc1
AC50 [1]: 35.5 µM [rising, partial curve, poor fit]

CCN(CC)S(=O)(=O)c1ccc(C(=O)Nc2nnc(CSC)o2)cc1
AC50 [1]: 20 µM [rising, single point]

O=C(NCCCN1CCOCC1)c1ccc(-n2nc(C(F)(F)F)cc2-c2cccs2)cc1
AC50 [1]: 0.0058 µM [falling, full curve, poor fit]

COc1cc(/C=C/C(=O)OCC(=O)NCc2ccco2)ccc1O
AC50 (measured here: IkBa-CBG green luminescence): 32.6 µM [falling, partial curve, poor fit]

CC(=O)Nc1cccc(NC(=O)CSc2ncc(-c3ccccc3)[nH]2)c1
AC50 [1]: 11.2 µM [rising, partial curve]

CCOc1ccc(C(=O)Nc2c(C(N)=O)oc3ccccc23)cc1
AC50 [1]: 0.092 µM [falling, full curve]

CCN(CC(=O)Nc1c(F)cccc1F)C(=O)c1cc2ccccc2oc1=O
AC50 [1]: 7.31 µM [rising, partial curve]

Cc1cc2c(cc1C)CSC(c1c(O)ccc3ccccc13)SC2
AC50 [1]: 29.1 µM [rising, single point]

CCCn1c(=O)c2[nH]cnc2n(-c2ccccc2C)c1=O
AC50 [1]: 1.12 µM [rising, full curve, poor fit]

CCCCc1nccn1CCn1ccnc1CCCC
AC50 [1]: 3.26 µM [falling, partial curve, poor fit]

CCN(CC)c1nc2ccccc2nc1C(C#N)C(=O)NCCCOC (stereo not drawn)
AC50 [1]: 0.231 µM [falling, partial curve, poor fit]

Nn1c(SCc2ccccc2)nc2c(cnn2-c2ccccc2)c1=O
AC50 [1]: 2.82 µM [rising, partial curve, poor fit]

COc1cc(C(=O)Sc2ccc(C)cc2)cc(OC)c1OC
AC50 [1]: 2.82 µM [falling, partial curve, poor fit]

Cc1ccc(S(=O)(=O)N2CCN(Cc3cc(=O)n4ccccc4n3)CC2)cc1C
AC50 [1]: 0.58 µM [rising, full curve]

COc1ccc(-c2noc(CCCCC(=O)N3CCN(c4cc(C)ccc4C)CC3)n2)cc1
AC50 [1]: 29.1 µM [falling, single point]

From PubChem BioAssay AID493014 (National Center for Advancing Translational Sciences (NCATS), 2011)
